Source: patent publication US20250313572A1, “MACROCYCLIC MCL-1 INHIBITORS AND METHODS OF USE” (AbbVie Inc., priority 2017, published 2025)

Sequences of proteins named here, by UniProt entry; tags and fusion partners are left off.
UniProt Q07820, whole entry: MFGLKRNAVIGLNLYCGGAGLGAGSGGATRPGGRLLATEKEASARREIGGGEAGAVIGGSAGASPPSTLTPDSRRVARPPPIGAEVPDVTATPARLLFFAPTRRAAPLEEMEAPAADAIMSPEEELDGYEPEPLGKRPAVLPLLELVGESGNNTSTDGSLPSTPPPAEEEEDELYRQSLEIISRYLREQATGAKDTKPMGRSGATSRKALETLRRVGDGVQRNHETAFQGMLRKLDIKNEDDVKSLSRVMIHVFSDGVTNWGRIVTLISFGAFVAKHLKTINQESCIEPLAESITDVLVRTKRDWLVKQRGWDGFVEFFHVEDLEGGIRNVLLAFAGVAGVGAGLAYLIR

Assays:
[1] = system: AMO-1 human multiple myeloma tumor cell line; assay: AMO-1 cell viability assay (CellTiter-Glo, 24 hours); assay type: cell-based; conditions: read-out: AMO-1 Viability IC50 (μM, 10% FBS), 24 hours of compound treatment
From the text: (§1) The in vitro efficacy of exemplary MCL-1 inhibitors can be determined in cell-based killing assays using a variety of cell lines and mouse tumor models. For example, their activity on cell viability can be assessed on a panel of cultured tumorigenic and non-tumorigenic cell lines, as well as primary mouse or human cell populations. MCL-1 inhibitory activity of exemplary MCL-1 inhibitors was confirmed in a cell viability assay with AMO-1 and NCI-H929 human multiple myeloma tumor cell lines.
(§2) In one exemplary set of conditions, NCI-H929 or AMO-1 (ATCC, Manassas, VA) were plated 4,000 cells per well in 384-well tissue culture plates (Corning, Corning, NY) in a total volume of 25 μL RPMI tissue culture medium supplemented with 10% fetal bovine serum (Sigma-Aldrich, St. Louis, MO) and treated with a 3-fold serial dilution of the compounds of interest with a Labcyte Echo from a final concentration of 10 µM to 0.0005 μM. Each concentration was tested in duplicate at least 3 independent times. A luminescent signal proportional to the number of viable cells following 24 hours of compound treatment was determined using the CellTiter-Glo® Luminescent Cell Viability Assay according to the manufacturer's recommendations (Promega Corp., Madison, WI). The plates were read in a Perkin Elmer Envision using a Luminescence protocol. […]

[2] = molecular target: GST-MCL-1 (Homo sapiens, UniProt Q07820); assay: TR-FRET MCL-1 binding assay (competition with probe F-Bak)
Experimental: Tb-anti-GST antibody was purchased from Invitrogen (Catalog No. PV4216).
For the assay, an acoustic dispenser was used to prepare dilution series from 10 mM test compounds in 100% DMSO and directly transfer 160 nL into low volume 384-well assay plates. 8 μL of a protein/probe/antibody mix was then added to each well resulting in final concentrations listed below: • Test compound: 11 three-fold dilutions beginning at 25 μM
The samples were then mixed on a shaker for 1 minute and incubated for an additional 2 hours at room temperature. For each assay plate, a probe/antibody and protein/antibody/probe mixture were included as a negative and a positive control, respectively. Fluorescence was measured on the Envision (Perkin Elmer) using a 340/35 nm excitation filter and 520/525 (F-Bak) and 495/510 nm (Tb-labeled anti-his antibody) emission filters. Dissociation constants (Ki) were determined using Wang's equation (Wang, 1995, FEBS Lett. 360:111-114). The TR-FRET assay can be performed in the presence of varying concentrations of human serum (HS) or fetal bovine serum (FBS). Compounds were tested both without HS and in the presence of 10% HS.

[3] = system: NCI-H929 human multiple myeloma tumor cell line; assay: NCI-H929 cell viability assay (CellTiter-Glo, 24 hours); conditions: read-out: H929 Viability IC50 (μM, 10% FBS), 24 hours of compound treatment
From the text: as §1, §2

COCCOCCOC[C@]1(F)CC[C@H](c2nccc(COc3ccc4cc3C[C@H](C(=O)O)Oc3ncnc5sc(-c6ccc(F)cc6)c(c35)-c3c(C)c(Cl)c(c(Cl)c3C)O[C@H](CN3CCN(C)CC3)CO4)n2)CC1 was tested, and the IC50 [1] was 0.00399 µM, the Ki ([2]; read-out: MCL-1 Binding Ki (nM, 10% HS), in the presence of 10% HS (human serum)) was 49.1 nM and the Ki ([2]; read-out: MCL-1 Binding Ki, without HS) was 49.8 nM. For the same compound, the IC50 [3] was 0.0028 µM.

Read-outs that look alike come from different tables or passages of the source. Structures were worked out from names or drawings and are uncertain.
